Data as given in PubChem BioAssay AID504764 (Drosophila RNAi Screening Center, 2011).
Aim: 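Knock-downs that raise or lower a Notch target reporter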 (primary screen). Cell system: Drosophila Kc167 cells. Reagents: long dsRNA against Drosophila genes. Timing: about 5 days (4 days dsRNA, then 24 h after transfection). Treatment: transfection of constitutively active membrane-tethered Notch lacking the extracellular domain, read 24 h later. Read-out: 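Light from a Notch-responsive E(spl)m3 luciferase reporter under active Notch, with control-promoter and no-Notch reporter wells to normalise; raw counts from paired wells a and b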. Direction: induced reporter light, run 1, well a and induced reporter light, run 1, well b: higher = more light from the Notch target reporter with active Notch; control promoter light, run 1, well a and control promoter light, run 1, well b: higher = more light from the viral control promoter (cell number, transfection, viability); uninduced reporter light, run 1, well a: higher = more light from the Notch target reporter without active Notch. Hit rule: 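Hit if the duplicate-averaged log2 ratio of induced to control-promoter light gives a plate-wise z beyond ±2, or induced to uninduced beyond ±1.8; weak-control or discordant-duplicate wells dropped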. Meaning of the calls: active = modifier hit (raised or lowered Notch signal); inactive = not a hit.
In all, the deposit lists about 22,000 reagents; shown is a random part of those with a known target gene and a result. In the full data, 403 (1.9%) got an active call. 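Unnormalised raw counts per well; ratio z-scores behind the hit calls and whether each hit raises or lowers signal are not deposited.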 The numbers tell different reagents against one gene apart. Reagent sequences are not shown. The record does not give: the amount of reagent.

| Target gene | reagent | induced reporter light, run 1, well a | induced reporter light, run 1, well b | control promoter light, run 1, well a | control promoter light, run 1, well b | uninduced reporter light, run 1, well a | activity call |
| --- | --- | --- | --- | --- | --- | --- | --- |
| CG33330 (retired record) | 1 | 8420 | 8990 | 4355 | 3455 | 2840 | inactive |
| CG33330 (retired record) | 2 | 1.06e5 | 1.34e5 | 78610 | 72510 | 8470 | inactive |
| CG6144 | 1 | 2.31e5 | 1.84e5 | 2.66e5 | 3.28e5 | 13495 | inactive |
| Dh44-R2 | 1 | 98430 | 86865 | 1.20e5 | 1.17e5 | 9040 | inactive |
| Dh44-R2 | 2 | 75135 | 70890 | 1.05e5 | 99780 | 7270 | inactive |
| CG8292 | 1 | 1.88e5 | 1.88e5 | 1.06e5 | 1.31e5 | 23585 | inactive |
| Idh | 1 | 1.12e5 | 1.29e5 | 94160 | 54535 | 11010 | inactive |
| CG9643 | 1 | 2.46e5 | 1.90e5 | 2.32e5 | 2.33e5 | 14665 | inactive |
| CG10597 | 1 | 83725 | 71155 | 1.21e5 | 89340 | 13385 | inactive |
| zf30C | 1 | 2.76e5 | 3.07e5 | 2.70e5 | 2.70e5 | 22430 | inactive |
| Ten-m | 1 | 99530 | 93910 | 1.15e5 | 93560 | 6990 | inactive |
| Ten-m | 2 | 97735 | 1.07e5 | 1.11e5 | 1.00e5 | 9520 | inactive |
| bgm | 1 | 1.94e5 | 1.73e5 | 1.84e5 | 2.10e5 | 13400 | inactive |
| m-cup | 1 | 2.13e5 | 2.26e5 | 2.44e5 | 2.06e5 | 16785 | inactive |
| CG14717 | 1 | 1.14e5 | 97085 | 86710 | 68495 | 5692 | inactive |
| CG15721 | 1 | 1.27e5 | 99410 | 1.33e5 | 1.13e5 | 7835 | inactive |
| Cyp4g15 | 1 | 1.24e5 | 1.27e5 | 2.47e5 | 2.72e5 | 8305 | inactive |
| Sfmbt | 1 | 2.26e5 | 2.24e5 | 1.63e5 | 2.02e5 | 15175 | inactive |
| CG18870 | 1 | 52595 | 34075 | 33575 | 48985 | 3495 | inactive |
| Acp36DE | 1 | 1.64e5 | 1.83e5 | 1.55e5 | 1.44e5 | 13000 | inactive |
| CG12769 | 1 | 1.78e5 | 1.72e5 | 1.52e5 | 1.64e5 | 13650 | inactive |
| rod | 1 | 1.88e5 | 1.51e5 | 2.34e5 | 2.21e5 | 10920 | inactive |
| CG5565 | 1 | 1.27e5 | 1.18e5 | 1.13e5 | 62885 | 9855 | inactive |
| CtsF | 1 | 1.43e5 | 99840 | 1.49e5 | 1.61e5 | 10295 | inactive |
| CtsF | 2 | 1.59e5 | 1.50e5 | 1.15e5 | 82155 | 13028 | inactive |
| CtsF | 3 | 1.38e5 | 1.49e5 | 1.27e5 | 1.02e5 | 8700 | inactive |
| CG12934 | 1 | 43315 | 31795 | 25320 | 29185 | 6200 | inactive |
| Nup44A | 1 | 1.04e5 | 1.03e5 | 1.06e5 | 90990 | 9065 | inactive |
| Lcp65Ac | 1 | 1.93e5 | 1.56e5 | 2.45e5 | 2.31e5 | 8320 | inactive |
| Cyp6t3 | 1 | 89855 | 85670 | 1.02e5 | 1.03e5 | 9125 | inactive |
| gcl | 1 | 1.73e5 | 1.97e5 | 1.40e5 | 1.52e5 | 16155 | inactive |
| CG17601 | 1 | 72200 | 80320 | 84645 | 1.06e5 | 8380 | inactive |
| Or74a | 1 | 1.34e5 | 1.27e5 | 2.33e5 | 2.03e5 | 5670 | active |
| CG8152 | 1 | 73835 | 73300 | 1.12e5 | 1.10e5 | 6345 | inactive |
| TM9SF4 | 1 | 2.80e5 | 2.19e5 | 2.29e5 | 2.57e5 | 17250 | inactive |
| TM9SF4 | 2 | 1.03e5 | 1.32e5 | 1.20e5 | 1.61e5 | 10678 | inactive |
| ctrip | 1 | 1.13e5 | 94275 | 1.30e5 | 1.37e5 | 6855 | inactive |
| ctrip | 2 | 1.29e5 | 1.40e5 | 1.18e5 | 1.19e5 | 8675 | inactive |
| CG1172 | 1 | 1.11e5 | 1.16e5 | 91630 | 94125 | 5555 | inactive |
| CG17738 | 1 | 45630 | 62350 | 54220 | 37525 | 4110 | inactive |
| CG31345 | 1 | 94110 | 92015 | 90435 | 74885 | 6125 | inactive |
| CG31345 | 2 | 59550 | 77640 | 59985 | 55190 | 5425 | inactive |
| CG32537 | 1 | 68960 | 62780 | 50855 | 30210 | 6670 | inactive |
| rk | 1 | 1.53e5 | 1.85e5 | 1.63e5 | 1.85e5 | 13120 | inactive |
| CG9877 | 1 | 2.06e5 | 1.65e5 | 1.62e5 | 1.73e5 | 13945 | inactive |
| CG33299 | 1 | 1.66e5 | 1.77e5 | 2.22e5 | 2.28e5 | 13155 | inactive |
| CG3907 | 1 | 1.30e5 | 1.45e5 | 1.33e5 | 1.31e5 | 9640 | inactive |
| CG15029 (retired record) | 1 | 1.27e5 | 1.11e5 | 1.42e5 | 1.10e5 | 12755 | inactive |
| CG13045 | 1 | 2.36e5 | 1.80e5 | 3.15e5 | 2.11e5 | 8645 | inactive |
| Oatp74D | 1 | 1.83e5 | 1.42e5 | 2.30e5 | 2.07e5 | 16800 | inactive |
| Oatp74D | 2 | 1.29e5 | 92255 | 51010 | 63645 | 8335 | inactive |

An excerpt from above, reduced to “induced reporter light, run 1, well a”.
CG10597 = 83725
zf30C = 2.76e5
Ten-m #1 = 99530
Ten-m #2 = 97735
bgm = 1.94e5
m-cup = 2.13e5
CG14717 = 1.14e5
CG15721 = 1.27e5
